B1: Pita (protein, UniProt Q95RQ8 1-683)
chain: MAAKLEVREAMLTEKRVCRFCLTEQKLASIFEENPRVKTTANLPLQIMAITAIEVYAGDGMPGHICLECRLLFEHCYRFKQMCKRAETLLRQYPLTGNWPSPLEKPRAPMTMVASKKLLVVPAKTAEPSETPKKLLNTMAKSSSQVIIEDVQVLESAMVTPRTVAGSSPVPRRSHAYELKVDNNQELSMDDVQSMLEDMASELEKEFPDIPQKASPVKPKVLNKSSIRILNKGPAAPVEPRLATPKVKRDDSGNVAIVTEVLDSDLPLDDQDDPTKNAEKVATDVFPCPDCERSFPLQQLLEIHRLNHTRSRSFQCLLCEKSFFSKYDLAKHNFVHTGERPFKCAICSKAFTRKALLHRHERTHTDVPKFICVYCEKPFLSRQEMEKHAERHQKKRPFQCGVCTKSFAFKQGLERHETVHSTNLPFPCQHCERSFSTASKLARHLVAHAGKRAYPCKYCHKSYMLSHHLSRHLRTHTQTSDASFVCSECKVSYSNYNDLLDHALIHATASLKCPMCRKQIEDIDSVESHMDQHKQSERHACEFCDHIFLTQKCLQRHIEDDHVVEMEPYQNEFEDDGEGEGGVDEKEEHLDDFEDMDNVKQEEFVTEYLEDDALYEDHLDDSDESFTPPPPKQRKTNPPKDAQQSVRQTRSRDAQRITQKTGKNEGKPHHKLERNLKNRRSAK
B2: Hcf (protein, UniProt Q9V4C8 1-1500)
chain: MEGSDFVDPAFSSGERISASDLNSEHIIQAENHSFANRISMDMDVPDGHQLDSNLTGFRWKRVLNPTGPQPRPRHGHRAINIKELMVVFGGGNEGIVDELHVYNTVTNQWYVPVLKGDVPNGCAAYGFVVEGTRMFVFGGMIEYGKYSNELYELQATKWEWRKMYPESPDSGLSPCPRLGHSFTMVGEKIFLFGGLANESDDPKNNIPKYLNDLYILDTRGVHSHNGKWIVPKTYGDSPPPRESHTGISFATKSNGNLNLLIYGGMSGCRLGDLWLLETDSMTWSKPKTSGEAPLPRSLHSSTMIGNKMYVFGGWVPLVINDSKSTTEREWKCTNTLAVLDLETMTWENVTLDTVEENVPRARAGHCAVGIQSRLYVWSGRDGYRKAWNNQVCCKDLWYLEVSKPLYAVKVALVRASTHALELSWTATTFAAAYVLQIQKIEQPLNTSSKLLSNNIVQQGTPTSAETSGINISANRSGSALGLGVEATSTVLKLEKESLQLSGCQPETNVQPSVNDLLQSMSQPSSPASRADKDPLSSGGGTTFNLSTSVASVHPQISVISSTAAVTGNDTASPSGAINSILQKFRPVVTAVRTSTTTAVSIATSTSDPLSVRVPSTMSANVVLSSSSSTLRIVPSVTASHSLRIASSQASGNNCRSSSAINILKTALPNVAVQSQPTSSTTTSIGGKQYFIQKPLTLAPNVQLQFVKTSGGMTVQTLPKVNFTASKGTPPHGISIANPHLASGITQIQGSTVPGSQIQKPIVSGNVLKLVSPHTMAGGKLIMKNSNILQMGKVTPNVMGGKPAFVITNKQGTPLGNQQIIIVTTGGNVRSVPTSTVMTSAGGSASGTNIVSIVNSTSTTPSPLQALSGQKTLISNQSGVKMLRNISSVQASSSMAFGQKQSGTPIHQKTALYIGGKAVTVMSTNTSMAASGNKVMVLPGTSSNNSPATTTALSARKSFVFNAGGSPRTVTLATKSINAKSIPQSQPVTETNNHSVATIKDTDPMDDIIEQLDGAGDLLKLSESEGQHGSEENENNGENATSSSASALFTGGDTAGPSRAQNPIVMEHPVDIIEDVSGVSSTTDVNETAIVSGDTIESLKMSEKENDDVKSMGEKSILSDDCHQPTTSETEAATILTTIKSAEALVLETAEIRKDHTGCTIGSLKENQDENKKFKQRQESSPSQNIHQFQNVDGSQLEALASAALLQAATSDTTALALKELIERPESETNTRSSNIAEIQQNNVQSTLAVVVPNTSQNENQKWHTVGVFKDLSHTVTSYIDSNCISDSFFDGIDVDNLPDFSKFPRTNLEPGTAYRFRLSAINSCGRGEWGEISSFKTCLPGFPGAPSAIKISKDVKEGAHLTWEPPPAQKTKEIIEYSVYLAVKPTAKDKALSTPQLAFVRVYVGAANQCTVPNASLSNAHVDCSNKPAIIFRIAARNQKGYGPATQVRWLQDPAAAKQHTPTVTPNLKRGPEKSTIGSSNIANTFCSPHKRGRNGLHD
B3: Su(Hw) (protein, UniProt P08970 1-941)
chain: MSASKEGKEKKGKLLGVENISPPKDKRPATRMKLLNDVGAGEDSEASTTTTTSRTPSNKQEKRGSVAGSRIKILNEEILGTPKTEKRGATKSTAPAASTVKILNEKKTPSATVTAVETTKIKTSPSKRKKMEHYVLQAVKSENTKADTTVTVVTEEDDTIDFILADDEEVVPGRIENNNGQEIVVTEDDEDLGEDGDEDGEDSSGKGNSSQTKIKEIVEHVCGKCYKTFRRVQSLKKHLEFCRYDSGYHLRKADMLKNLEKIEKDAVVMEKKDICFCCSESYDTFHLGHINCPDCPKSFKTQTSYERHIFITHSEFSDFPCSICNANLRSEALLALHEEQHKSRGKPYACKICGKDFTRSYHLKRHQKYSSCSSNETDTMSCKVCDRVFYRLDNLRSHLKQHLGTQVVKKPEYMCHTCKNCFYSLSTLNIHIRTHTGEKPFDCDLCDKKFSALVALKKHRRYHTGEKPYSCTVCNQAFAVKEVLNRHMKRHTGERPHKCDECGKSFIQATQLRTHSKTHIRPFPCEQCDEKFKTEKQLERHVKTHSRTKRPVFSCAECKRNFRTPALLKEHMDEGKHSPKQQRSSMRSAVKIMERTDCAICDKNFDSSDTLRRHIRTVHECDPDDIFGVEPHPSKRAKKDIESEEVVPVALNTSAGSLISSQTDGNGVVVREFLVDEGDGAAQTITLENETYTILPLDGAIEGEQLTDEAGVKPEAKKEEAQVSPVVKKEQRKSLAASLAAAIADNLEESCSEDDFSGEILTEEDIKLKENVGKLIDMLVDPPILKKYGWPNAPEETVLCKVIENCGHDLTKGGENYAELDYGSRMREYCKLLFTVVIHNDSIKSLLNNFPIDDVIEYVLGDEDQDEGGLDKDNESHSGDEEAVSVTGETKTNEIREKPEKKEVSAKSEKKEIVGKAVDKDNSEEVVRENKKKPVGEQEKA
B4: Bre1 (protein, UniProt Q9VRP9 1-1044)
chain: MSKRSADDATGSSCLVAAAAAGQPPIKKVHFEPHLIGPVSTLEEMDIKVLEFQNKKLAQRIEQRMRTEAELRHRIEQLEKRQTQDDAVLNVVNRYWNQLNEDIRVLLQRFDAETADELENRNENEVTTSFLAQLSTWDKEELDEKLANRVQVSKRAVAKIVQVIDRLMQRNEKITHVLKGDSLASAGSGSGAGAGGEEEQQQASGDAETTTSSAGVHALEETLKQTHIEIMSENHKLQNLNTSLHEKFHTMSLKMKEYQDAHTAKETENAELKNQIDELQYDLEKIHCRNDKLENHLAEAIEKLKAYHQIYGDPNKSTNSAKTPTTTGSGGATTSVNSQLLEELQKELEEYRELANNRLQELDKLHATHRETLKEVEKLKMDIRQLPESVIVETTEYKCLQSQFSVLYNESMQIKTMLDETRNQLQTSKNQHLRQIEVMESEELIAQKKVRSEMIQMEDVLALIRKEYETLRIEFEQNMAANEQTAPINREMRHLITSLQNHNGQLKGEVQRYKRKYKDTSTDNLKLRQELADALATLEGNKLQAATGAAGEEIKQENSTGVKEENSNNVSASGQTNQTNSGNDTNVAIKEENHISAEDEADDEASGKDVKDGIKQEKLSSGDAAAAEKKDSPGPGNSTSSATNSVPVKNEKDSKDGVKGKDVKAVESETVRDLKAQLKKALNDQKEMKLLLDMYKGVSKDQRDKVQLMATEKKLRSEIEELRQQLKKLQESKREERKKLADEEALRKIKQLEEQKYELQKQMANHKPTDNSWGSGAPGTANYTRPFVGSHEEEALLNEMEVTGQAFEDMQEQNSRLIQQLREKDDANFKLMSERIKANQLHKLLREEKTVLEDQMATATTQIEAMHIVLRKLEEKERSLQATVASIEKELMLRQQAMEMHKRKAIESAQSAADLKLHLEKYHAQMKEAQQVVAEKTSSLEAEAYKTKRLQEELAQFKRKAERMKKMEMSGTTIDEVMIEEIREYKETLTCPSCKVKRKDAVLSKCFHVFCYDCLRTRYETRQRKCPKCNCAFGANDYHRLYLQ
B5: E(y)2/ENY2 (protein, UniProt Q9VYX1 1-101)
chain: MSTSGAVDQYTVLTGDRSKIKDLLCSRLTECGWRDEVRLMCRNILMEKGTNNSFTVEQLIAEVTPKARTLVPDAVKKELLMKIRTILTEIEEEPDEPEDES

Protein sequences, listed by entry. Tags and fused reporters are not part of them. Lines headed by an entry give the natural chain unless they say otherwise; changes in a name come on top.
UniProt Q08605: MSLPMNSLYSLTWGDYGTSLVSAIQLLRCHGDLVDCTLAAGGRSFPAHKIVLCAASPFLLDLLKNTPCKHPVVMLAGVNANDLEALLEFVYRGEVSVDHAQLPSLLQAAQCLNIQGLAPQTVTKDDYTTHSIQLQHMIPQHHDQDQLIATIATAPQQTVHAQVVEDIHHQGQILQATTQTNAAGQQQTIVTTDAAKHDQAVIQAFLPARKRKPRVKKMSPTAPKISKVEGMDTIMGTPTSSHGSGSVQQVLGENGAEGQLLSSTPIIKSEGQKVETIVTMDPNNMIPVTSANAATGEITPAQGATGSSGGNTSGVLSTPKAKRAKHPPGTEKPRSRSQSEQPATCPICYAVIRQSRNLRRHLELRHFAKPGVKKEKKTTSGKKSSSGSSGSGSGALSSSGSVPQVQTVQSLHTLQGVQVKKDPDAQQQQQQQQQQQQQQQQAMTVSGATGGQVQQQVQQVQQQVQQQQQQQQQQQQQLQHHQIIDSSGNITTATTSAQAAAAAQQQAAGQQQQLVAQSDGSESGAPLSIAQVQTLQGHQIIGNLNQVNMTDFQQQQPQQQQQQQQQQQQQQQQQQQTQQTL

No constants are given. Whether binding was seen depends on the method and setting. Binding seen in cells or lysates may run through a third protein. Here binding means that the protein was enriched with, or labelled near, the bait; the list need not be complete.

This passage reports binding results from article PMC5351981.

The test deals with GAGA factor (GAF) (Drosophila melanogaster (endogenous in embryos)) (UniProt Q08605). The test can be described thus: affinity purification with mass spectrometry; GAF polyclonal antibody coupled to protein A Sepharose; 10 mg nuclear extract of 0-12 h embryos, HEMG-150, 2 h; washed with HEMG-500 plus 0.1% Nonidet P-40; eluted with 0.1 M glycine pH 2.5; triplicate; mock: protein A Sepharose with no antibody.
Regarding B1, the binding entry is listed as “binds”.
With B2, the binding entry is on record as “binds”.
Take B3: the binding result was “binds”.
On to B4, for which the binding entry is listed as “binds”.
B5: the binding result is “binds”.
